Results taken from PubChem BioAssay AID493014 (National Center for Advancing Translational Sciences (NCATS), 2011).
Some of the results follow. Shown are side measurements of this screen, not its main read-out; they come without a call. Compounds called inactive in the main read-out are mostly missing here. The note in brackets gives the kind of curve behind each potency; many fits are weak.

Test: qHTS Assay to Find Inhibitors of Chronic Active B-Cell Receptor Signaling
Conditions: ABC-DLBCL IkBa-CBG/CBR reporter, luminescence ratio (green luciferase fused to IkBa over red control in TMD8 lymphoma cells), 4 h
Outline: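 Doxycycline induced both beetle luciferases in TMD8 lymphoma cells; IKK-driven degradation limits the IkappaBalpha-fused green signal, while red luminescence normalises for cell number and nonspecific effects. Compounds tested up to 46 uM, 4 hrs.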

[1] = measured here: CBR red luminescence, cell number
[2] = measured here: IkBa-CBG green luminescence

Structure (SMILES)	AC50 [1]	AC50 [2]
C/C(=N\NC(=S)Nc1cccc(C)c1)c1cccc(N)c1	0.517 µM [rising, single point]	
c1ccc(-n2ncc3c(NCc4ccco4)ncnc32)cc1	7.31 µM [falling, partial curve]	
COc1ccc(/C=N/c2c(-c3ccc(OC)cc3)nc3n2CCS3)cc1	32.6 µM [rising, partial curve, poor fit]	
c1ccc(-c2nnc(OCc3cccnc3)c3ccccc23)cc1	35.5 µM [rising, single point]	
S=C(Nc1ccc2nccnc2c1)N1CCOCC1	35.5 µM [falling, single point]	
Cc1ccc(NC(=O)c2ccccc2[N+](=O)[O-])nc1	20.6 µM [falling, partial curve, poor fit]	
Oc1ccc(-c2nc3ccccc3s2)c(O)c1	0.1 µM [rising, full curve, poor fit]	
O=C(c1cc(-c2ccccc2O)on1)N1CCc2ccccc2C1	10 µM [falling, single point]	
Cc1cccc(C)c1OCC(=O)NCc1nnc(SCC(=O)NC2CCCCC2)n1C	6.51 µM [rising, single point]	5.8 µM [falling, partial curve, poor fit]
O=C(Nc1ccc(C(=O)N2CCCCC2)cc1)C1=CSCCO1	8.91 µM [rising, partial curve, poor fit]	
O=C(C1CCN(Cc2ccc(F)cc2)CC1)N1CCN(C/C=C/c2ccccc2)CC1	22.4 µM [falling, single point]	
Cc1cc2nccc(-c3cccnc3)n2n1	25.1 µM [falling, single point]	
CCOC(=O)c1cnc2c(cnn2C)c1NCCC#N	9.2 µM [falling, partial curve, poor fit]	
O=C(CN1C(=O)NC2(CCCc3ccccc32)C1=O)c1ccc(F)c(F)c1 (configuration not stated)	29.1 µM [falling, single point]	
Cc1csc2ncc(C(=O)NCCC(c3ccccc3)c3ccccc3)c(=O)n12	20 µM [rising, partial curve, poor fit]	
CCC(C(=O)NCc1ccco1)N(C(=O)CNS(=O)(=O)c1ccccc1)c1ccc(OC)cc1 (configuration not stated)	20.6 µM [rising, single point]	
O=S(=O)(NC1CCCCC1)c1ccc(F)c2ccccc12	25.9 µM [falling, single point]	
Cc1ccc(NC(=O)CSC2=C(C#N)C(c3ccco3)C3=C(CCCC3=O)N2)cc1 (configuration not stated)	4.47 µM [falling, partial curve, poor fit]	
O=C(c1ccc(N2CCOCC2)c([N+](=O)[O-])c1)N1CCN(S(=O)(=O)c2cccs2)CC1	35.5 µM [rising, partial curve, poor fit]	
O=C(/C=C/c1ccccc1Cl)Nc1cccc(S(=O)(=O)NC2=NCCCCC2)c1	18.4 µM [falling, partial curve]	
CCC(=O)Nc1nc(C)c(-c2csc(Nc3cccc(O)c3)n2)s1	14.1 µM [falling, partial curve]	
COc1cccc(Nc2nc3ccccc3c(=O)[nH]2)c1	0.316 µM [rising, full curve, poor fit]	

Structure (SMILES)	AC50 [1]	AC50 [2]
Fc1ccc(-c2noc3ncnc(Nc4ccc(F)cc4F)c23)cc1	14.1 µM [rising, single point]	
Cc1ccc2c(Cl)c(C(=O)NCCCn3ccnc3)sc2c1	3.66 µM [falling, full curve, poor fit]	
CC(=NCc1ccco1)C1=C(O)c2ccccc2C1=O	11.2 µM [falling, single point]	
O=C(Nc1ccncc1)Nc1ccc(F)c(Cl)c1	3.16 µM [rising, partial curve, poor fit]	
CCOC(=O)c1c(NC(=O)CN2CCCCC2)sc2c1CCN(C(=O)OCC)C2	35.5 µM [falling, single point]	
Cc1cccc2sc(NC(=O)C3CCN(S(=O)(=O)c4cc([N+](=O)[O-])ccc4Cl)CC3)nc12	2.91 µM [falling, full curve]	2.91 µM [rising, partial curve, poor fit]
CC1CCc2c(sc(NC(=O)CSc3nnc(-c4ccccc4)o3)c2C#N)C1 (configuration not stated)	7.31 µM [rising, partial curve]	
Cc1ccc(C)c(NC(=O)CN(C)S(=O)(=O)c2cccc3cccnc23)c1	20 µM [rising, single point]	
Cc1c(Cl)ccc2sc(NC(=O)c3ccco3)nc12	0.891 µM [falling, full curve, poor fit]	
Cc1nc2nc(Cc3ccccc3)[nH]n2c(=O)c1Cl	8.2 µM [falling, partial curve]	
COc1cccc2cc(-c3csc(NC(=O)CCC(=O)NCCCN4CCC(C)CC4)n3)c(=O)oc12	12.6 µM [falling, single point]	
Cc1cc2nnc(SCC(=O)Nc3ccc(Cl)cc3)n2c(N)n1	0.891 µM [rising, full curve, poor fit]	
Cc1ccc(NS(=O)(=O)c2cc(C(=O)OCC(=O)NCC3CCCO3)ccc2C)cc1 (configuration not stated)	5.62 µM [rising, single point]	
O=C(O)CCCN1C(=O)/C(=C/c2cn(-c3ccccc3)nc2-c2cccs2)SC1=S	1.12 µM [falling, full curve, poor fit]	
O=C(CCn1ccc2ccccc21)NC1CCCc2ccccc21 (configuration not stated)	4.11 µM [falling, full curve, poor fit]	
O=C(O/N=C/C1=C(Cl)c2ccccc2CC1)c1ccc(F)cc1	18.4 µM [rising, single point]	
COc1cccc(C(=O)/C=C/c2ccc(SC)cc2)c1	6.31 µM [falling, partial curve]	
O=C1c2ccccc2S(=O)(=O)N1CC(O)Cn1c2ccccc2c2ccccc21 (configuration not stated)	12.6 µM [falling, partial curve]	
O=C(c1sccc1Cl)N1CCN(Cc2ccc3c(c2)OCO3)CC1	3.98 µM [falling, partial curve, poor fit]	
Fc1ccc2nc(Nc3nc4c(s3)CCCC4)sc2c1	35.5 µM [falling, single point]	
O=C(CSc1ncccn1)NCCc1ccccc1	31.6 µM [rising, single point]	
CC1CCc2nn(CC(=O)NCCCN3CCCC3=O)cc2C1 (configuration not stated)	1.46 µM [falling, full curve, poor fit]	

Some of these compounds in order of length of the SMILES, ascending:
Structure (SMILES)	AC50 [1]	AC50 [2]
O=C(c1sccc1Cl)N1CCN(Cc2ccc3c(c2)OCO3)CC1	3.98 µM [falling, partial curve, poor fit]	
Cc1csc2ncc(C(=O)NCCC(c3ccccc3)c3ccccc3)c(=O)n12	20 µM [rising, partial curve, poor fit]	
O=C(O)CCCN1C(=O)/C(=C/c2cn(-c3ccccc3)nc2-c2cccs2)SC1=S	1.12 µM [falling, full curve, poor fit]	

The listing continues:

Structure (SMILES)	AC50 [1]	AC50 [2]
CCc1sc(NC(=O)CN2CCC(C(N)=O)CC2)nc1-c1ccccc1	14.1 µM [falling, single point]	
CCSc1ccccc1C(=O)Nc1nc2ccccc2c(=O)[nH]1	7.94 µM [falling, partial curve, poor fit]	0.891 µM [rising, full curve]
O=C(NC(=S)Nc1ccccc1Br)C1CCCC1	3.16 µM [falling, partial curve]	
CCC(C)C(=O)Nc1nccs1 (configuration not stated)	2.24 µM [falling, partial curve, poor fit]	
COc1ccc(CCNC(=O)/C=C/c2ccc(C)cc2)cc1OC	6.31 µM [rising, partial curve, poor fit]	
COc1cccc(C(=O)Nc2cc(C)on2)c1OC	7.08 µM [rising, partial curve, poor fit]	
O=C(CSc1nccc(=O)[nH]1)c1cc2ccccc2o1	11.2 µM [falling, partial curve, poor fit]	
O=C(NNc1ncnc2c1cnn2-c1cccc(Cl)c1)c1ccco1	12.6 µM [falling, partial curve]	
C#CCOCCOCCOCCNc1nc(N2CCN(C(=O)CCCCCCCCCCNC(=O)[C@H]([C@@H](C)CC)n3cc(CCCCN=C(N)N)nn3)CC2)nc(N2CCN(C(=O)CCCCCCCCCCNC(=O)[C@@H]([C@H](C)O)n3cc(C)nn3)CC2)n1	14.6 µM [rising, partial curve]	
CC[C@](C)(O)c1cc2ccccc2c(=O)o1	2.31 µM [falling, single point]	
CCCSc1nc(N2CCOCC2)c2c(c1C#N)CC(C)(C)SC2	0.082 µM [falling, partial curve, poor fit]	
CC(=O)Nc1ccc(N/C=C/C(=O)c2ccco2)cc1	14.6 µM [falling, partial curve, poor fit]	
CC(C)c1ccc(C(=O)NNC(=O)c2n[nH]c(=O)c3ccccc23)cc1	29.1 µM [rising, single point]	
COc1ccc(OC)c(NC(=O)Cc2csc(NC(=O)Nc3ccccc3OC)n2)c1	16.4 µM [falling, single point]	
Cc1nc(CSc2ccc(Br)cc2)cs1	2.82 µM [rising, full curve]	
COc1ccccc1-n1nnnc1SCC(=O)Nc1ccccn1	4.11 µM [falling, full curve]	
c1ccc(-c2cc(-c3ccccc3)on2)cc1	0.891 µM [rising, partial curve, poor fit]	
COc1ccc(OC)c(-c2[nH]nc3c2C(c2ccco2)C(C#N)=C(N)O3)c1 (configuration not stated)	18.4 µM [falling, single point]	
COCCn1c(CN2CCN(c3cccc(Cl)c3)CC2)nc2c1c(=O)n(C)c(=O)n2C	22.4 µM [falling, single point]	
Cc1cc(C(C)(C)C)oc1C(=O)N(CC(=O)NC1CCCC1)c1cccc(C(F)(F)F)c1	14.6 µM [falling, partial curve, poor fit]	
